Data taken from PubChem BioAssay AID504834 (National Center for Advancing Translational Sciences (NCATS), 2011).
Out of some 320,000 compounds screened, about 22,000 (6.9%) were called active. Inconclusive results, whose numbers are uncertain, are shown with a selection of clear calls. The call rests on the fitted dose curve; in most records, active means well fitted inhibition curve with a large enough effect; inconclusive means small, poorly fitted or top-dose-only effect, or another doubt; inactive means no such curve, though single readings can be large or run the other way. A potency beside an inconclusive call is a rough fit, not a confirmed value.

Assay: Primary qHTS for delayed death inhibitors of the malarial parasite plastid, 96 hour incubation
Settings: P. falciparum luciferase reporter growth; series mostly up to 28.7 µM
Outline: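 Erythrocytes infected with luciferase-expressing P. falciparum were dispensed at 2% hematocrit and 0.05% parasitemia (final), then incubated with compounds 96 hours at 37 C in 5% CO2. Luminescence after detection reagent addition reported growth.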
Potency means the concentration at half of the fitted maximal effect.

Row | SMILES | Potency
1 | O=C(Nc1ccccc1F)C(=O)Nc1cccc2ccccc12 | inconclusive: 10.4 µM [inhibitor, single point]
2 | CC(C)C(=O)Nc1cc2c(cc1C(=O)c1ccccc1)OCCO2 | active: 1.31 µM
3 | O=C(c1ccc2ccccc2n1)N1CCN(c2ccccc2O)CC1 | active: 13.1 µM
4 | CS(=O)c1nc(-c2ccc(Br)cc2)cc(-c2ccccc2)c1C#N (stereo not given) | inactive
5 | CN1CCN(c2ccc(NC(=O)c3sc4ccccc4c3Cl)cc2)CC1 | inactive
6 | CSc1ccc(C2c3[nH]c4ccccc4c3CCN2C(=O)c2ccnn2C)cc1 (stereo not given) | inconclusive: 10.4 µM [inhibitor, single point]
7 | O=C(COc1ccc(C(=O)O)cc1)Nc1cccc(C(F)(F)F)c1 | inconclusive: 4.15 µM [inhibitor, partial curve, poor fit]
8 | CC1CCCC(NC(=O)CSc2nnnn2C)C1C (stereo not given) | inconclusive: 11.7 µM [inhibitor, single point]
9 | Cc1ccc2c(c1)CCCN2CC(=O)Nc1cc(S(=O)(=O)N2CCCC2)ccc1Cl | active: 4.65 µM
10 | COc1ccc(C2NC(=O)NC(C)=C2C(C)=O)cc1 (stereo not given) | inconclusive: 10.4 µM [inhibitor, single point]
11 | CC(C)(C)C(=O)Nc1nnc(SCC(=O)NC2CCCC2)s1 | inactive
12 | Cc1nnc(-c2ccc(Cl)cc2)nc1NCCN(C)C | inactive
13 | C/C(=N\NC(=O)CSc1nc2ccccc2s1)c1cccnc1 | inconclusive: 9.28 µM [inhibitor, partial curve]
14 | COc1ccc(NC(=O)O/N=C/c2ccccc2)cc1 | inconclusive: 16.5 µM [inhibitor, partial curve, poor fit]
15 | CCOc1ccccc1N(CC(=O)NCCSc1ccccn1)S(=O)(=O)c1ccccc1 | inconclusive: 1.31 µM [inhibitor, full curve]
16 | COc1ccccc1C(=O)NCCOc1ccc(C(C)(C)C)cc1 | active: 14.7 µM
17 | O=C(Nc1ccccc1)c1ccc(NCCN2C(=O)CCC2=O)c([N+](=O)[O-])c1 | inactive
18 | N#Cc1cc2cc3ccccc3nc2n2c(=O)c3ccccc3nc12 | inconclusive: 2.33 µM [inhibitor, full curve, poor fit]
19 | COc1nc(N2CCOCC2)nc(-n2cccc2)n1 | inconclusive: 18.5 µM [inhibitor, single point]
20 | Cc1ccc(-n2c(Cc3cccs3)nnc2SCC(=O)OC(C)C)cc1 | inconclusive: 18.5 µM [inhibitor, single point]
21 | CCC(Sc1nc2c(c(=O)n1CC)SC(C)C2)C(=O)OC (stereo not given) | active: 0.37 µM
22 | COc1cc(NC2c3ncccc3C(=O)N2Cc2ccco2)cc(OC)c1OC (stereo not given) | inconclusive: 1.04 µM [inhibitor, full curve]
23 | Cc1cccc(C2c3[nH]c4ccccc4c3CCN2C(=O)c2nn(C)c(=O)c3ccccc23)n1 (stereo not given) | active: 8.28 µM
24 | Cc1ccc(S(=O)(=O)NC2OC(=O)C(Cl)=C2Cl)cc1 (stereo not given) | inconclusive: 10.4 µM [inhibitor, partial curve, poor fit]

A draw from above in order of count of non-hydrogen atoms, low to high:
Row | SMILES | Potency
10 | COc1ccc(C2NC(=O)NC(C)=C2C(C)=O)cc1 (stereo not given) | inconclusive: 10.4 µM [inhibitor, single point]
14 | COc1ccc(NC(=O)O/N=C/c2ccccc2)cc1 | inconclusive: 16.5 µM [inhibitor, partial curve, poor fit]
21 | CCC(Sc1nc2c(c(=O)n1CC)SC(C)C2)C(=O)OC (stereo not given) | active: 0.37 µM
11 | CC(C)(C)C(=O)Nc1nnc(SCC(=O)NC2CCCC2)s1 | inactive
13 | C/C(=N\NC(=O)CSc1nc2ccccc2s1)c1cccnc1 | inconclusive: 9.28 µM [inhibitor, partial curve]
7 | O=C(COc1ccc(C(=O)O)cc1)Nc1cccc(C(F)(F)F)c1 | inconclusive: 4.15 µM [inhibitor, partial curve, poor fit]
18 | N#Cc1cc2cc3ccccc3nc2n2c(=O)c3ccccc3nc12 | inconclusive: 2.33 µM [inhibitor, full curve, poor fit]
20 | Cc1ccc(-n2c(Cc3cccs3)nnc2SCC(=O)OC(C)C)cc1 | inconclusive: 18.5 µM [inhibitor, single point]
17 | O=C(Nc1ccccc1)c1ccc(NCCN2C(=O)CCC2=O)c([N+](=O)[O-])c1 | inactive
6 | CSc1ccc(C2c3[nH]c4ccccc4c3CCN2C(=O)c2ccnn2C)cc1 (stereo not given) | inconclusive: 10.4 µM [inhibitor, single point]
9 | Cc1ccc2c(c1)CCCN2CC(=O)Nc1cc(S(=O)(=O)N2CCCC2)ccc1Cl | active: 4.65 µM
15 | CCOc1ccccc1N(CC(=O)NCCSc1ccccn1)S(=O)(=O)c1ccccc1 | inconclusive: 1.31 µM [inhibitor, full curve]
23 | Cc1cccc(C2c3[nH]c4ccccc4c3CCN2C(=O)c2nn(C)c(=O)c3ccccc23)n1 (stereo not given) | active: 8.28 µM

The list continues.

Row | SMILES | Potency
25 | O=C1C(N2CCOCC2)=C(n2nnc3ccccc32)C(=O)c2ccccc21 | active: 2.33 µM
26 | CC(C)Cn1c(=S)[nH]c2ccccc2c1=O | inactive
27 | O=C(CCCN1C(=O)/C(=C/c2cccs2)SC1=S)Nc1cc([N+](=O)[O-])ccc1O | inconclusive: 8.28 µM [inhibitor, partial curve]
28 | N#Cc1c(-c2ccccc2F)cc(-c2cccnc2)nc1N | inconclusive: 10.4 µM [inhibitor, single point]
29 | O=C(C1=C[C@@H](c2ccc3c(c2)OCO3)C[C@@H](OCCCCO)O1)N1CCN(Cc2ccc3c(c2)OCO3)CC1 | active: 10.4 µM
30 | COc1ccc(C(=O)N[C@H](C(=O)Nc2ccc(S(=O)(=O)N3CCOCC3)cc2)C(C)C)cc1 | inconclusive: 2.94 µM [inhibitor, full curve]
31 | COc1ccc(CC2(CO)CCN(Cc3cccn3-c3ccccn3)CC2)cc1 | inactive
32 | COc1ccc(-c2cc(C)no2)cc1S(=O)(=O)N1CCN(c2cccc(C)c2)C(C)C1 (stereo not given) | inconclusive: 5.22 µM [inhibitor, partial curve, poor fit]
33 | COc1cc(OC)cc(-c2nnc(SCc3cccnc3)o2)c1 | inconclusive: 4.15 µM [inhibitor, full curve, poor fit]
34 | CC1=C(C(=O)OCc2ccccc2)C(c2cccc3ccccc23)NC(=O)N1CCCC(=O)O (stereo not given) | inconclusive: 18.5 µM [inhibitor, single point]
35 | CC(C)Cc1nnc(NC(=O)CCC(=O)NC2CCCCC2)s1 | inconclusive: 18.5 µM [inhibitor, partial curve, poor fit]
36 | c1ccc2oc(SCc3cn4ccccc4n3)nc2c1 | inactive
37 | CCOc1cccc(-c2c(C(=O)N/N=C(\C)c3ccncc3)nnn2-c2nonc2N)c1 | inconclusive: 18.5 µM [inhibitor, single point]
38 | CCOc1cc(/C=N/NC(=O)c2nn(C)cc2Br)ccc1OCc1ccccc1Cl | inconclusive: 11.7 µM [inhibitor, single point]
39 | COc1ccc(-c2cc(=O)oc3cc(OCC(=O)NCc4ccccn4)ccc23)cc1 | inconclusive: 18.5 µM [inhibitor, single point]
40 | Cc1cc(OCC(O)CN2CCN(c3ccccn3)CC2)cc(C)c1Cl (stereo not given) | inconclusive: 18.5 µM [inhibitor, single point]
41 | COc1ccc(CNC(=O)C(NS(=O)(=O)c2cccc3nsnc23)C(C)C)cc1 (stereo not given) | inconclusive: 10.4 µM [inhibitor, single point]
42 | C/C(N)=C(/C#N)C(=O)CSc1nnc(Nc2cccc(C)c2)s1 | inconclusive: 4.65 µM [inhibitor, partial curve]
43 | CCC(=O)Nc1cc(C(=O)N2CCC3(CC2)OCCO3)ccc1S(=O)(=O)c1ccc(C)cc1 | active: 3.7 µM
44 | CCC(C(=O)NCc1cccnc1)n1nc(C)n2c(cc3occc32)c1=O (stereo not given) | inactive
45 | COc1ccc(C(CNC(=O)CCNC(=O)c2ccccc2Cl)N2CCCC2)cc1 (stereo not given) | inconclusive: 2.62 µM [inhibitor, full curve, poor fit]
46 | CCN(Cc1ccncc1)S(=O)(=O)c1ccc(C(C)=O)cc1 | inconclusive: 9.28 µM [inhibitor, single point]
47 | COc1ccc(OC)c2c(C)cc(N3CCN(C(=O)c4ccc(F)cc4)CC3)nc12 | inactive
48 | CCN1CCN(c2c(/C=C3\SC(=S)N(Cc4ccco4)C3=O)c(C)c(C#N)c(=O)n2C)CC1 | inconclusive: 1.47 µM [inhibitor, full curve, poor fit]

In the list so far, these contain a nitro group on carbon:
Row | SMILES | Potency
17 | O=C(Nc1ccccc1)c1ccc(NCCN2C(=O)CCC2=O)c([N+](=O)[O-])c1 | inactive
27 | O=C(CCCN1C(=O)/C(=C/c2cccs2)SC1=S)Nc1cc([N+](=O)[O-])ccc1O | inconclusive: 8.28 µM [inhibitor, partial curve]

(continued)

Row | SMILES | Potency
49 | CN(Cc1ccccc1)C(=O)COc1ccc(C(C)(C)C)cc1 | inactive
50 | O=c1[nH]c(C2CCN(S(=O)(=O)c3ccccc3)CC2)nc2c1nnn2Cc1c(F)cccc1Cl | active: 5.22 µM
51 | N#Cc1ccc(S(=O)(=O)N2CCN(Cc3cccs3)CC2)cc1 | inactive
52 | Clc1nc2ccccc2cc1/C=N/Nc1nc2ccccc2[nH]1 | inconclusive: 0.586 µM [inhibitor, full curve, poor fit]
53 | COc1ccc(N2CCN(S(=O)(=O)c3ccc4c(c3)NC(=O)C(C)C(=O)N4)CC2)cc1 (stereo not given) | inactive
54 | CCN(CC)CCNC(=O)c1ccc(NC(=O)C2CCN(S(=O)(=O)c3ccc4c(c3)OCCO4)CC2)cc1 | inconclusive: 18.5 µM [inhibitor, single point]
55 | CCc1oc(C(=O)OC)cc1CSC(=N)N | inconclusive: 4.15 µM [inhibitor, single point]
56 | CC(O)CNCCNCc1c(OCc2ccccc2)ccc2ccccc12 (stereo not given) | active: 2.33 µM
57 | O=c1c2ccccc2nc2n1C1(CCCCC1)Cc1ccccc1-2 | inconclusive: 5.22 µM [inhibitor, partial curve, poor fit]
58 | CCOC(=O)C(/C(C)=N/NC(=O)c1ccccc1[N+](=O)[O-])C(C)C (stereo not given) | inconclusive: 0.0329 µM [inhibitor, full curve, poor fit]
59 | COc1ccccc1C(=O)NC(CCSC)C(=O)NNC(=O)c1ccccc1O (stereo not given) | inactive
60 | CCCNC(=O)C(Cc1ccccc1)NC(=O)c1ccc(-c2ccccc2)cc1 (stereo not given) | active: 1.47 µM
61 | COc1ccc(C2c3cc(OC)c(OC)cc3CCN2C(=O)c2cccc([N+](=O)[O-])c2)cc1OC (stereo not given) | active: 9.28 µM
62 | Cc1ccc(NC(=O)CCn2c(=S)oc3ccccc32)cc1 | inconclusive: 10.4 µM [inhibitor, single point]
63 | Cc1ccc(OCC(=O)N/N=C2\CCOc3c(C)cccc32)cc1 | inactive
64 | Cc1cc(OCC(=O)NC(C)C)cc(C)c1Br | inconclusive: 18.5 µM [inhibitor, single point]
65 | O=C(CSc1n[nH]c(=O)n1C1CC1)NCc1ccccc1Cl | inactive
66 | COc1cc(OC)cc(C(=O)NC(=S)Nc2ccc(Cl)c(C(=O)O)c2)c1 | inactive
67 | COc1ccc2c(c1)O[C@@H](c1cccc(C(F)(F)F)c1)[C@H](O)C2=O | inconclusive: 11.7 µM [inhibitor, single point]
68 | CCOC(=O)[C@H]1[C@H]2COc3ccc(OC)cc3[C@@H]2N2C(=O)CN(Cc3ccco3)C(=O)[C@@]12C | inconclusive: 5.22 µM [inhibitor, single point]
69 | CC12CCC(=O)N1C(C(=O)NCCN1C(=O)S/C(=C\c3ccc(OC(F)F)cc3)C1=O)CS2 (stereo not given) | inconclusive: 14.7 µM [inhibitor, single point]
70 | CC(=O)Nc1ccc(S(=O)(=O)N2CCN(C(=O)N3CCCCC3)CC2)cc1 | inconclusive: 2.62 µM [inhibitor, partial curve, poor fit]
